Reference: PubChem BioAssay AID328 (DTP/NCI, 2004)
The list shows only some results of the screen, not a fair sample: it is rich in T/C values a quarter to a half above the control, in often repeated tests (any T/C) and in doses without a T/C. Other doses and runs of a compound stand elsewhere. T/C is the treated group as % of the vehicle group. Some doses have a count of surviving animals in place of a T/C: the source files T/C as zero there, which appears to mark a toxic dose or a test without result, not a measured value. Some survivor counts are full or nearly so, which does not show that the dose was tolerated: the source hardly ever lists a survival T/C far under the control, and the zero likely stands for such cases as well. Counts of survivors are from the toxicity check (mostly the fifth day) where no day follows; animals may have died later. Schedule codes are those of the source, taken here to give the interval after Q, in days (D) or hours (H), and the number of doses after X. Some doses were run more than once; the values are given in rising order. Marks such as (2×) give the number of equal values in this list. Where survival is the endpoint, this PubChem deposit counts one and a half times the control or more as active, and values a quarter to a half above the control carry no call in these data; other NCI protocols may use other cut-offs. Some T/C values carry the count of animals alive at the toxicity check (mostly the fifth day); without a count, all were alive then.

Test system: BDF1 mice, P388 leukemia ip, median survival T/C
Experiment: NCI In Vivo Anticancer Drug Screen. Data for tumor model P388 Leukemia (intraperitoneal) in B6D2F1 (BDF1) mice
Conditions: T/C endpoint: median survival time, higher T/C = longer survival
Procedure, shortened: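 T/C = treated-group survival ÷ vehicle-control survival; tumour transplanted into mice before dosing.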

[1] = dose: 200.0 mg/kg/injection, schedule: Q04DX003 (ip), vehicle: saline
[2] = dose: 400.0 mg/kg/injection, schedule: Q04DX003 (ip), vehicle: saline
[3] = dose: 50.0 mg/kg/injection, schedule: Q01DX009 (ip), vehicle: saline with Tween-80
[4] = dose: 100.0 mg/kg/injection, schedule: Q01DX009 (ip), vehicle: saline with Tween-80
[5] = dose: 200.0 mg/kg/injection, schedule: Q01DX009 (ip), vehicle: saline
[6] = dose: 25.0 mg/kg/injection, schedule: Q01DX009 (ip), vehicle: saline with Tween-80
[7] = dose: 400.0 mg/kg/injection, schedule: Q04DX003 (ip), vehicle: saline with Tween-80
[8] = dose: 25.0 mg/kg/injection, schedule: Q04DX003 (ip), vehicle: saline with Tween-80
[9] = dose: 400.0 mg/kg/injection, schedule: Q01DX009 (ip), vehicle: Klucel (hydroxypropylcellulose) (HPC)

Structure (SMILES): CC1CN1P(=O)(OCCCl)N1CC1C (stereo not drawn)
- T/C (dose: 100.0 mg/kg/injection, schedule: Q04DX003 (ip), vehicle: saline): 127 % of control
- T/C [1]: 136 % of control
- survivor count [2]: 4 of 6

Structure (SMILES): CC(=O)CC(OC(=O)c1cc([N+](=O)[O-])cc([N+](=O)[O-])c1)(C(F)(F)F)C(F)(F)F
- survivor count [3]: 2 of 3

Structure (SMILES): CCCCOC1OCN(CCOC)CC1(C)C (stereo not drawn)
- T/C [4]: 138 % of control

Structure (SMILES): CC(CC#N)NC(=O)C1CCC(N)=N1 (stereo not drawn)
- survivor count [5]: 6 of 6

Structure (SMILES): O=[N+]([O-])c1cccc(O)c1
- survivor count (dose: 400.0 mg/kg/injection, schedule: Q01DX009 (ip), vehicle: saline with Tween-80): 3 of 6
- survivor count [2]: 3 of 6

Structure (SMILES): CN(C)Cc1ccc([N+](=O)[O-])cc1
- survivor count (dose: 100.0 mg/kg/injection, schedule: Q01DX009 (ip), vehicle: saline): 2 of 6
- survivor count [5]: 0 of 6
- survivor count [2]: 0 of 6

Structure (SMILES): CCCCCCCCCCCCN1C(=O)[N+](C)(C)N=C1[O-]
- survivor count (dose: 200.0 mg/kg/injection, schedule: Q01DX009 (ip), vehicle: saline with Tween-80): 5 of 6

Structure (SMILES): C[N+]1(C2CCC3CCC2C3O)CCOCC1 (stereo not drawn)
- survivor count (dose: 25.0 mg/kg/injection, schedule: Q01DX009 (ip), vehicle: saline): 6 of 6
- survivor count [1]: 5 of 6
- survivor count [2]: 0 of 6 (2×)

Structure (SMILES): COC(=O)C12CCc3cc(OC)ccc3C1=CC(=O)C2 (stereo not drawn)
- T/C (dose: 400.0 mg/kg/injection, schedule: Q04DX003 (ip), vehicle: saline sonified): 127 % of control

Structure (SMILES): Nc1ncnc2c(C3OC(CO)C(O)C3O)[nH]nc12 (stereo not drawn)
- T/C (dose: 3.13 mg/kg/injection, schedule: Q01DX009 (ip), vehicle: saline): 127 % of control
- T/C (dose: 3.5 mg/kg/injection, schedule: Q01DX009 (ip), vehicle: saline): 126 % of control
- T/C (dose: 5.2 mg/kg/injection, schedule: Q01DX009 (ip), vehicle: saline): 131 % of control
- T/C (dose: 6.25 mg/kg/injection, schedule: Q01DX009 (ip), vehicle: saline): 136 % of control
- T/C (dose: 12.0 mg/kg/injection, schedule: Q01DX009 (ip), vehicle: saline): 140 % of control
- T/C (dose: 18.0 mg/kg/injection, schedule: Q01DX009 (ip), vehicle: saline): 145 % of control
- survivor count [6]: 6 of 6
- survivor count [3]: 4 of 6
- T/C (dose: 50.0 mg/kg/injection, schedule: Q04DX003 (ip), vehicle: saline sonified): 127 % of control
- survivor count [4]: 0 of 6
- survivor count (dose: 200.0 mg/kg/injection, schedule: Q04DX003 (ip), vehicle: saline sonified): 5 of 6

Structure (SMILES): CC(C)(O)C1C2OC(=O)C1C1(O)CC3OC34C(=O)OC2C14C (stereo not drawn)
- T/C (dose: 50.0 mg/kg/injection, schedule: Q04DX003 (ip), vehicle: saline with Tween-80): 127 % of control

Structure (SMILES): CS(=O)(=O)OCCN(CCOS(C)(=O)=O)c1cccc(C(F)(F)F)c1
- T/C (dose: 100.0 mg/kg/injection, schedule: Q04DX003 (ip), vehicle: saline with Tween-80): 131 % of control
- survivor count (dose: 200.0 mg/kg/injection, schedule: Q04DX003 (ip), vehicle: saline with Tween-80): 6 of 6
- survivor count [7]: 4 of 6

Structure (SMILES): CN(N)c1ccccc1
- T/C [8]: 125 % of control

Structure (SMILES): CCCCC1C(=O)OC(C(C)C(O)CCCN=C(N)N)C(C)C=C(C)CCCCC(O)CC(O)CC(O)CC(O)CC(O)C(OC2OC(CO)C(O)C2O)C=C(C)C(O)CCCC(O)CCCC(O)CCC(C)C1O (stereo not drawn)
- survivor count (dose: 5.0 mg/kg/injection, schedule: Q01DX010 (ip), vehicle: carboxymethylcellulose (CMC)): 2 of 6
- survivor count (dose: 10.0 mg/kg/injection, schedule: Q01DX010 (ip), vehicle: carboxymethylcellulose (CMC)): 0 of 6
- survivor count (dose: 20.0 mg/kg/injection, schedule: Q01DX010 (ip), vehicle: carboxymethylcellulose (CMC)): 0 of 6

Structure (SMILES): CCCC(=O)OCC1OC(n2cnc3c(=S)nc(N)[nH]c32)C(OC(=O)CCC)C1OC(=O)CCC (stereo not drawn)
- T/C [8]: 146 % of control
- T/C (dose: 37.5 mg/kg/injection, schedule: Q04DX003 (ip), vehicle: saline with Tween-80): 127 % of control

Structure (SMILES): CC(=O)Oc1cc2c[n+](C)c3c4cc(OC(C)=O)c(OC(C)=O)cc4ccc3c2cc1OC(C)=O
- survivor count (dose: 240.0 mg/kg/injection, schedule: Q01DX009 (ip), vehicle: saline): 5 of 6

Structure (SMILES): C[C@]12CCC(=O)C=C1CC[C@@H]1[C@@H]2[C@@H](O)C[C@@]2(C)[C@H]1CC[C@]2(O)C(=O)COC(=O)CCC1CCCC1
- survivor count (dose: 100.0 mg/kg/injection, schedule: Q01DX009 (ip), vehicle: Klucel (hydroxypropylcellulose) (HPC)): 6 of 6
- survivor count (dose: 200.0 mg/kg/injection, schedule: Q01DX009 (ip), vehicle: Klucel (hydroxypropylcellulose) (HPC)): 6 of 6
- survivor count [9]: 6 of 6

Structure (SMILES): CCN(CC)CCCC(C)NC(=O)c1ccc2c(c1)C(=O)c1ccccc1C2=O (stereo not drawn)
- T/C (dose: 200.0 mg/kg/injection, schedule: Q01DX005 (ip), vehicle: saline): 127 % of control

Structure (SMILES): COc1cccc2c1C(=N)c1c(O)c3c(c(O)c1C2=O)C[C@@](O)(C(C)=O)C[C@@H]3OC1CC(N)C(O)C(C)O1 (stereo partly drawn)
- T/C (dose: 16.0 mg/kg/injection, schedule: Q04DX003 (ip), vehicle: saline): 140 % of control

Structure (SMILES): CC[CH2][Pb]([CH2]CC)([CH2]CC)[N]1C(=O)c2ccccc2C1=O
- T/C (dose: 12.5 mg/kg/injection, schedule: Q01DX009 (ip), vehicle: Klucel (hydroxypropylcellulose) (HPC)): 126 % of control
- survivor count (dose: 25.0 mg/kg/injection, schedule: Q01DX009 (ip), vehicle: Klucel (hydroxypropylcellulose) (HPC)): 6 of 6

Structure (SMILES): ICC1(CI)CCCCC1
- T/C (dose: 400.0 mg/kg/injection, schedule: Q01DX001 (ip), vehicle: saline with Tween-80): 128 % of control

Structure (SMILES): Cc1ccc(C(SCC(N)C(=O)O)(c2ccc(C)cc2)c2ccc(C)cc2)cc1 (stereo not drawn)
- T/C (dose: 45.0 mg/kg/injection, schedule: Q04DX003 (ip), vehicle: Klucel (hydroxypropylcellulose) (HPC)): 136 % of control

Structure (SMILES): CN(C)P(=O)(Oc1ccccc1)N(C)C
- T/C [3]: 135 % of control

Structure (SMILES): Cc1cc(C)c(C#N)c(=O)[nH]1
- survivor count [5]: 5 of 6

Structure (SMILES): c1ccc(C[n+]2ccc(-c3cc[n+](Cc4ccccc4)cc3)cc2)cc1
- survivor count (dose: 1.25 mg/kg/injection, schedule: Q01DX010 (ip), vehicle: saline): 6 of 6
- survivor count (dose: 2.5 mg/kg/injection, schedule: Q01DX010 (ip), vehicle: saline): 5 of 6 and 6 of 6
- survivor count (dose: 5.0 mg/kg/injection, schedule: Q01DX010 (ip), vehicle: saline): 0 of 6
- survivor count (dose: 10.0 mg/kg/injection, schedule: Q01DX010 (ip), vehicle: saline): 0 of 6
- survivor count (dose: 1250.0 micrograms/kg/injection, schedule: Q01DX010 (ip), vehicle: saline): 7 of 7

Structure (SMILES): c1ccc(OCc2ccc(COc3ccccc3)cc2)cc1
- survivor count (dose: 50.0 mg/kg/injection, schedule: Q01DX009 (ip), vehicle: Klucel (hydroxypropylcellulose) (HPC)): 6 of 6

Structure (SMILES): Nc1nc(N)c2cc(NCc3ccccc3Cl)ccc2n1
- T/C (dose: 6.25 mg/kg/injection, schedule: Q01DX009 (ip), vehicle: saline with Tween-80): 131 % of control
- T/C (dose: 12.5 mg/kg/injection, schedule: Q01DX009 (ip), vehicle: saline with Tween-80): 145 % of control
- T/C [6]: 145 % of control
- survivor count (dose: 35.0 mg/kg/injection, schedule: Q01DX009 (ip), vehicle: Klucel (hydroxypropylcellulose) (HPC)): 1 of 6
- survivor count (dose: 37.5 mg/kg/injection, schedule: Q04DX003 (ip), vehicle: Klucel (hydroxypropylcellulose) (HPC)): 2 of 6
- survivor count (dose: 55.0 mg/kg/injection, schedule: Q01DX009 (ip), vehicle: Klucel (hydroxypropylcellulose) (HPC)): 0 of 6
- survivor count (dose: 75.0 mg/kg/injection, schedule: Q04DX003 (ip), vehicle: Klucel (hydroxypropylcellulose) (HPC)): 0 of 6
- survivor count (dose: 80.0 mg/kg/injection, schedule: Q01DX009 (ip), vehicle: Klucel (hydroxypropylcellulose) (HPC)): 1 of 6

Structure (SMILES): CCC(C)Sc1nc(N)nc2c1ncn2C1OC(CO)C(O)C1O (stereo not drawn)
- T/C [7]: 125 [4 of 6 alive] and 140 % of control [5 of 6 alive]

Structure (SMILES): CCCCCCCCCCC(C(=O)O)C1(C(=O)O)CCC(=O)O1 (stereo not drawn)
- survivor count [9]: 3 of 6

Structure (SMILES): OCCN1CCN(CC/C=C2\c3ccccc3COc3ccc(Cl)cc32)CC1
- survivor count (dose: 12.5 mg/kg/injection, schedule: Q04DX003 (ip), vehicle: saline): 3 of 6
- T/C (dose: 50.0 mg/kg/injection, schedule: Q04DX003 (ip), vehicle: saline): 147 % of control

Structure (SMILES): O=C(Cn1cc(F)c(=O)[nH]c1=O)c1ccco1
- T/C [2]: 133 % of control
